Measurements from US4666890A (priority 1978, dated 1987).

Assay: general procedure: solution-phase peptide synthesis; succinimide active ester (oSu); isobutyl chloroformate / N-methylmorpholine mixe
Conditions: late stage modification step

## D-Lac-L-Ala-γ-D-Glu(α-OH)-(L)-Z-(D)-mesoDAP-(L)-GlyOH
  step yield: 94.7%
